## Percent effect of library compounds

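Phenotypic screen: M. tuberculosis growth, glucose 7H9 medium, 3 days; the read-out is not stated. Tested at 500 µM. The record gives no direction; compounds that gave an IC50 in retests scored well above the rest, so higher reads as more growth inhibition. Size under these conditions: about 18,000 compounds, about 1,400 of them at 50% or above in at least one test.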

Values are the deposited “Percent Effect”, in %.
How 0% and 100% were set is not recorded. Most values in the screen are low, and negative values occur.
This is an unselected part of the compounds tested.

SMILES	percent effect
CCC1CN(C)c2ccccc2CN1CCC(=O)NC (stereo not shown)	82.9%
CN(Cc1ccc(Br)o1)C(=O)c1nccnc1N	60.7%
NCCN1C(=O)c2ccccc2C1=O	4.876%
CCS(=O)(=O)N1CC(CN)C1	10.27%
c1c[nH]c(CC2CCNCC2)n1	0.05759%
CCOC(=O)N1CCN(Cc2nc(C3CC3)no2)CC1	83.24%
CN(c1ncnc(N)c1Cl)C1CCC(O)CC1 (stereo not shown)	29.57%
Cc1cc(Cn2c(=O)[nH]c3ccccc3c2=O)no1	-22.05%
c1cncc(CC2CCNCC2)c1	1.45%
CC1(C)CC(CN)CCO1 (stereo not shown)	5.983%
Cc1cc(C(=O)NCCCN(C)C)c2ccccc2n1	9.008%
OCC1(O)CCOCC1	2.099%
CCn1nc(C)cc1C(=O)N1CCC(O)(C(F)(F)F)C1 (stereo not shown)	3.233%
O=S(=O)(NCC(O)c1ccsc1)c1c[nH]cn1 (stereo not shown)	11.63%
CCc1ccc(CN2C[C@H](O)[C@@H](N3CCCC3)C2)nc1	33.5%
CN(C)Cc1cccc(C(=O)N[C@@H]2CCOC[C@H]2O)c1	6.325%
CCNC(=O)c1cccn1CC	14.07%
Cc1ccc(-c2noc([C@H](N)CCCN)n2)nn1	2.985%
CC(=O)c1ccc(Cl)c(S(=O)(=O)NC(CN)C2CC2)c1 (stereo not shown)	50.99%
CCCC(=O)NC1CC(=O)N(c2cccc(OC)c2)C1 (stereo not shown)	35.15%
NCCc1ccnc(N)c1	8.713%
Cc1ccc(C(C)NC(=O)CNC(=O)c2ccoc2)o1 (stereo not shown)	30.07%
CC(C)CN(CC(N)=O)CC(=O)NC1CC1	-12.98%
c1ccc(OCC2CCNC2)cc1 (stereo not shown)	28.97%
O=S(=O)(CC(O)CNCc1ccccn1)c1cccs1 (stereo not shown)	28.85%
Cc1cccc(OC(F)F)c1NC(=O)N(C)CCO	-11.52%
O=C(COCC(=O)N1CCCCC1)Nc1ccccc1	13.11%
OCc1cc2ccccc2nc1N1CCSCC1	76.13%
Cn1ncc(N[C@@H]2C=C[C@H](CO)C2)c(Cl)c1=O	7.391%
C=C(C)CN(CC)C(=O)Cc1c(C)noc1C	24.93%
CN(CC1CCOCC1)C(=O)c1ccc(CN)cc1	19.2%
COc1cc(CN)ccc1OCc1cccnc1	2.717%
CN(C)c1noc(CNS(=O)(=O)c2ccccc2)n1	35.33%
CC(C)C[C@H](N)C(=O)N1CCC(Oc2ccncc2)C1 (stereo partly shown)	-9.827%
O=c1cc(N2CCCC2)cnn1CC1CCNC1 (stereo not shown)	2.003%
CN(C)C(=O)C1CCCN1C(=O)c1cccc(C#N)c1 (stereo not shown)	-2.588%
CC1(C(=O)NCCOC(N)=O)CCCc2ccccc21 (stereo not shown)	5.771%
CC(C)C1CCCN(S(N)(=O)=O)CC1 (stereo not shown)	28.71%
Cc1nnc(CCNC(=O)CN2CCC(N(C)C)C2)s1 (stereo not shown)	9.612%
CN1CC(CCN)C1	-15.54%
CNC(=O)Cc1nc(-c2ccc3c(c2)COC3)cs1	12%
Cc1cccc(C)c1CN1CCOC(C(N)=O)C1 (stereo not shown)	-13.57%
CCO[C@@H]1COCC[C@H]1NC(=O)c1cncn1C	-0.5735%
CSCCNC(=O)CN(c1ccc(C)cc1)S(C)(=O)=O	16.75%
Cc1[nH]cnc1CN1CCN(C(=O)c2cccs2)CC1	8.107%
CCN1CCC(NC(=O)c2ccc3c(c2)OCO3)CC1	-10.72%
N#Cc1ccc(OCC(=O)Nc2ccccn2)cc1	47.66%
O=C(NCc1cccnc1)c1cn2cccnc2n1	11.33%
O=C(Cc1cccc(O)c1)NCCNc1ccccc1	40.46%
CN(C)c1ccc(CN2CCOCC(O)C2)cn1 (stereo not shown)	-4.174%
O=S1(=O)CCNCc2ccccc21	-12.63%
COCCC1(C(=O)N(C)CC2CCCCO2)CCC1 (stereo not shown)	-15.55%
CN(C)C(=O)Nc1cc2c(cc1Br)OCCO2	15.56%
CN1CCN(C(=O)CCSc2ccccc2)CC1	14.02%
CNC(=O)N1CCN(c2ccc(Cl)cn2)CC1	-11.47%
Cc1cccnc1N1CCNCC1	10.67%
CCCc1cc(C(=O)NCC2COCCO2)cs1 (stereo not shown)	81.58%
CCN(CC)CCNC1=NS(=O)(=O)c2ccccc21	10.47%
CSCCC(=O)NC(C)c1ccc2c(c1)OCCCO2 (stereo not shown)	55.61%
CNc1cc(Cl)ccc1C(=O)N(C)C	0.7845%
Cc1cc(NCc2ncc[nH]2)ccc1F	45.13%
Cc1cccc(C)c1NC(=O)C1CCS(=O)(=O)C1 (stereo not shown)	-7.18%
Cc1cc(NC(N)=O)c2ncccc2c1	14.68%
NC(=O)CCC1CCN(Cc2ccc(N)nc2)CC1	-9.687%
CN(CCCNC(=O)CC1CCNC1)c1ccccc1 (stereo not shown)	41.99%
CCCS(=O)(=O)N1C[C@@H](CN(C)C)[C@@H](CO)C1	9.282%
c1snnc1CNCC1COC2(CCCCC2)O1 (stereo not shown)	56.1%
COc1ccc2c(c1)[C@@H](N)CCC2	15.97%
CC[C@H]1COCCN1C(=O)c1nn(C)c(C)c1Cl	8.944%
CCO[C@H]1CN(C)C[C@@H]1NC(=O)c1ccc[nH]1	-2.742%
COCCN(Cc1cccs1)C(=O)CC1CCNC1 (stereo not shown)	65.72%
CN1CCCN(C(=O)COc2ccccc2)CC1	12.03%
CC(C)(C)c1[nH][nH]c(=O)c1CCN	24.22%
CS(=O)(=O)NC1CCCN(c2nc3ccccc3o2)C1 (stereo not shown)	29.77%
CCNCC(O)COc1ccc(C)cc1OC (stereo not shown)	75.09%
NCC1COc2ccccc21 (stereo not shown)	28.89%
CC(CC(=O)N1CCOCC1)NC(=O)c1ccccc1 (stereo not shown)	28.98%
COc1ccnc(NCCS(=O)(=O)c2ccccc2)n1	65.5%
Cc1cccc(OCC(O)CNc2ncccc2F)c1 (stereo not shown)	73.34%
CC(NC(=O)NCCc1ccccn1)c1nncn1C (stereo not shown)	-5.525%
CN1CCC(CNC(=O)CCc2ccccc2O)C1 (stereo not shown)	49.66%
CCNS(=O)(=O)CCNC(=O)Cc1cc(F)ccc1F	-4.968%
CCC(=O)NC1CCNC1 (stereo not shown)	0.2667%
CSCCCNC(=O)c1ccc(CN(C)C)o1	-8.306%
CCc1nccn1-c1ccc(CNC(C)=O)cc1	-1.154%
CC(=O)c1cccc(NC(=O)NCc2cc[nH]n2)c1	36.67%
COC(C)c1noc(C2CCN(C(=O)N(C)C)CC2)n1 (stereo not shown)	0.2745%
CCSc1nnc(N2CCOCC2)n1C	14.75%

For reference, 8 entries once more:

SMILES	percent effect
CCCS(=O)(=O)N1C[C@@H](CN(C)C)[C@@H](CO)C1	9.282%
CNC(=O)N1CCN(c2ccc(Cl)cn2)CC1	-11.47%
Cc1nnc(CCNC(=O)CN2CCC(N(C)C)C2)s1 (stereo not shown)	9.612%
CNC(=O)Cc1nc(-c2ccc3c(c2)COC3)cs1	12%
NCCN1C(=O)c2ccccc2C1=O	4.876%
CCNCC(O)COc1ccc(C)cc1OC (stereo not shown)	75.09%
CCN(CC)CCNC1=NS(=O)(=O)c2ccccc21	10.47%
c1snnc1CNCC1COC2(CCCCC2)O1 (stereo not shown)	56.1%

Measurements from “University of Dundee, Small-Polar-MMV Screening Library” (2021), ChEMBL document CHEMBL3988442.